Our source for the binding values is paper doi:10.1101/341420.

Sequences of proteins named here, by UniProt entry; tags and fusion partners are left off.
UniProt P15927: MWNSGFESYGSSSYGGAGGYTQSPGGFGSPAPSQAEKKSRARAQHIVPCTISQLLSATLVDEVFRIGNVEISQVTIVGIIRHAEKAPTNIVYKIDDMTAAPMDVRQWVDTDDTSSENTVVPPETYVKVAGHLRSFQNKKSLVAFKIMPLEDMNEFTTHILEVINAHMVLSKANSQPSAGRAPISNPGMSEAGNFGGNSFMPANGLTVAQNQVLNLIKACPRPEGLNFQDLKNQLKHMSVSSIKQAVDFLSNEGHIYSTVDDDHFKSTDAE
UniProt P54132: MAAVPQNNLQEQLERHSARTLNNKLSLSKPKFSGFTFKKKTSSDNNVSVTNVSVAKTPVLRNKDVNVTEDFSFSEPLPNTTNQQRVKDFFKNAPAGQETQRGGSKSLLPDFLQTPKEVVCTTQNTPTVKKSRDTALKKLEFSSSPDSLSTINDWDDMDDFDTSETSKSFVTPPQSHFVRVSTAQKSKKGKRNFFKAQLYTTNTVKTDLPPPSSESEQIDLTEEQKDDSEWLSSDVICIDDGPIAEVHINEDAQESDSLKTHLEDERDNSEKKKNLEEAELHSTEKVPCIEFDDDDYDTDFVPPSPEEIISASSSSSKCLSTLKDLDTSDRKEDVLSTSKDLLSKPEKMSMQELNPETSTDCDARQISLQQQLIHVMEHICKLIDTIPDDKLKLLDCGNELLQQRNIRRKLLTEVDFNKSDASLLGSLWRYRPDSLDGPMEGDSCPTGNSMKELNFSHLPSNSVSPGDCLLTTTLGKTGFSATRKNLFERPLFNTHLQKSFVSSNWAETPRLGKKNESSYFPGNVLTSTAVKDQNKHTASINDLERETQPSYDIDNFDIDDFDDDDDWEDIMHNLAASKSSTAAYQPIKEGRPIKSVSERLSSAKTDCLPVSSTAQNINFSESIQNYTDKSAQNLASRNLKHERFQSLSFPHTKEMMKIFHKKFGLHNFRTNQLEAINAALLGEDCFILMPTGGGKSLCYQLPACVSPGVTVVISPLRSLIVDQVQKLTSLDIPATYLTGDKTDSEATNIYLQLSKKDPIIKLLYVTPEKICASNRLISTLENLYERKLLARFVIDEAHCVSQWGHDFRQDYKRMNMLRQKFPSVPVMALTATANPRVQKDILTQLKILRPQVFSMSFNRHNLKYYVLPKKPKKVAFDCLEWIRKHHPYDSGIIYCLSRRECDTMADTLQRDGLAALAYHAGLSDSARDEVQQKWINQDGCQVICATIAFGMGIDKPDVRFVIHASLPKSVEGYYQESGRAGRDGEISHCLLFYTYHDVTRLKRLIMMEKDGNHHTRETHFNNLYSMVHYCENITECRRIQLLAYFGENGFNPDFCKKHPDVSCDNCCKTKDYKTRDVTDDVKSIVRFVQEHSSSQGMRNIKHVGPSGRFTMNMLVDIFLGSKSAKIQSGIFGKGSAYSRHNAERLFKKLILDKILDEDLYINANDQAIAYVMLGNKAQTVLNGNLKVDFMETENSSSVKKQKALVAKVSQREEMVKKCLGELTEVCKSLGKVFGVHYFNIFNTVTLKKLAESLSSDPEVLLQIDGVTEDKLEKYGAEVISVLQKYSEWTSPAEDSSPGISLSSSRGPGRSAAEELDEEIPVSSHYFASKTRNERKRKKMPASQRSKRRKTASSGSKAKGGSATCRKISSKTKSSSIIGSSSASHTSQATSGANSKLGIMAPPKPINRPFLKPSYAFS

Test [1] concerns the target RPA2 (human (endogenous in HeLa and HCT116)) (UniProt P15927). The test can be described thus: co-IP.
For test [2], the target named is BLM (human (endogenous in HeLa and HCT116)) (UniProt P54132). The test can be described thus: co-IP.

These are yes or no findings as the source states them, for the method shown. Binding seen in cells or lysates may run through a third protein. Some binding calls cover weakened binding; strength is not graded here.

B1: RMI2 (protein, UniProt Q96E14 1-147)
chain: MAAAADSFSGGPAGVRLPRSPPLKVLAEQLRRDAEGGPGAWRLSRAAAGRGPLDLAAVWMQGRVVMADRGEARLRDPSGDFSVRGLERVPRGRPCLVPGKYVMVMGVVQACSPEPCLQAVKMTDLSDNPIHESMWELEVEDLHRNIP
With B1, the binding result in test [1] and in test [2] was “binds” throughout.

B2: topoisomerase IIIa (TOP3A) (protein, UniProt Q13472 1-1001)
chain: MIFPVARYALRWLRRPEDRAFSRAAMEMALRGVRKVLCVAEKNDAAKGIADLLSNGRMRRREGLSKFNKIYEFDYHLYGQNVTMVMTSVSGHLLAHDFQMQFRKWQSCNPLVLFEAEIEKYCPENFVDIKKTLERETRQCQALVIWTDCDREGENIGFEIIHVCKAVKPNLQVLRARFSEITPHAVRTACENLTEPDQRVSDAVDVRQELDLRIGAAFTRFQTLRLQRIFPEVLAEQLISYGSCQFPTLGFVVERFKAIQAFVPEIFHRIKVTHDHKDGIVEFNWKRHRLFNHTACLVLYQLCVEDPMATVVEVRSKPKSKWRPQALDTVELEKLASRKLRINAKETMRIAEKLYTQGYISYPRTETNIFPRDLNLTVLVEQQTPDPRWGAFAQSILERGGPTPRNGNKSDQAHPPIHPTKYTNNLQGDEQRLYEFIVRHFLACCSQDAQGQETTVEIDIAQERFVAHGLMILARNYLDVYPYDHWSDKILPVYEQGSHFQPSTVEMVDGETSPPKLLTEADLIALMEKHGIGTDATHAEHIETIKARMYVGLTPDKRFLPGHLGMGLVEGYDSMGYEMSKPDLRAELEADLKLICDGKKDKFVVLRQQVQKYKQVFIEAVAKAKKLDEALAQYFGNGTELAQQEDIYPAMPEPIRKCPQCNKDMVLKTKKNGGFYLSCMGFPECRSAVWLPDSVLEASRDSSVCPVCQPHPVYRLKLKFKRGSLPPTMPLEFVCCIGGCDDTLREILDLRFSGGPPRASQPSGRLQANQSLNRMDNSQHPQPADSRQTGSSKALAQTLPPPTAAGESNSVTCNCGQEAVLLTVRKEGPNRGRQFFKCNGGSCNFFLWADSPNPGAGGPPALAYRPLGASLGCPPGPGIHLGGFGNPGDGSGSGTSCLCSQPSVTRTVQKDGPNKGRQFHTCAKPREQQCGFFQWVDENTAPGTSGAPSWTGDRGRTLESEARSKRPRASSSDMGSTAKKPRKCSLCHQPGHTRPFCPQNR
Turning to B2, the binding entry in test [1] was “binds”.
